Results are given in words; binding and its absence hold for the method and conditions named. Binding seen in cells or lysates may run through a third protein. Some results given as binding are weak or reduced against the parent protein; the word gives no strength. Sequences can lack the tags named with a protein. Values belong to the binder of their own block, whether it stands above or below them.
Assays:
[1] = target: … CLOCK-ASSOCIATED 1 fused to YFP (CCA1-YFP) (Arabidopsis thaliana) (UniProt P92973); assay: co-IP; extracts of nine day-old CCA1-YFP-ox/CKB4-MYC-ox seedlings (LD, ZT3) in RIPA buffer; 4 h at 4°C with Protein G-Sepharose beads conjugated with anti-GFP; detection with anti-MYC
[2] = target: T1, TOC1 fused to the N-terminal fragment of YFP (TOC1-nYFP) (Arabidopsis thaliana) (UniProt Q9LKL2); assay: split reporter; BiFC in stably over-expressing Arabidopsis plants; YFP N-terminal fragment (nucleotides 1-462) and C-terminal fragment (nucleotides 463-741); confocal microscopy of hypocotyl cells
T1 sequence: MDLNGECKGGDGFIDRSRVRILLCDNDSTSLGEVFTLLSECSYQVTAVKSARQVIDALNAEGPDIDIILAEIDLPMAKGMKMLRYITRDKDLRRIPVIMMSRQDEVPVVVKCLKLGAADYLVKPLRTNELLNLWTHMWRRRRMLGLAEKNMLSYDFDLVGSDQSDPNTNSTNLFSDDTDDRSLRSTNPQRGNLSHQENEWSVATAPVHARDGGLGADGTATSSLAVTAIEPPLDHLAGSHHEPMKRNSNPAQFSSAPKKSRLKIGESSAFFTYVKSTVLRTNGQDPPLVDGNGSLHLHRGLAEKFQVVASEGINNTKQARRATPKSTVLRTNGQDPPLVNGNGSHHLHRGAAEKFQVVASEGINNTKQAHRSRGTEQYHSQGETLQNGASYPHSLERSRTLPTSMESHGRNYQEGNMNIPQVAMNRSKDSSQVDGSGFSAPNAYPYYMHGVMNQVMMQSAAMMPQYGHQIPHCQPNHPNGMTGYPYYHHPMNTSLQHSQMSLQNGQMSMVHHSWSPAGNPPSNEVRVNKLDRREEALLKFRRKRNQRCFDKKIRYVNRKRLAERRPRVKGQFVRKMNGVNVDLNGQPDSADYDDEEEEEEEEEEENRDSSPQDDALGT

[3] = target: CCA1 fused to the N-terminal fragment of YFP (CCA1-nYFP) (Arabidopsis thaliana) (UniProt P92973); assay: as above

binding [1]: binds
B1: CK2 regulatory subunit CKB4 with MYC tag (CKB4-MYC) (protein, UniProt O80507 1-283)
chain: MYKDRSGGGIMGGGGSSRSEILGGAIDRKRINDALDKHLKKSSPSTSRVFTSKDKDSVPSTSTAKSQLHSRSPDVESDTDSEGSDVSGSEGDDTSWISWFCNLRGNEFFCEVDEDYIQDDFNLCGLSGQVPYYDYALDLILDVESSNGDMFTEEQHEMVESAAEMLYGLIHVRYILTTKGMAAMMEKYKNYDFGRCPRVFCCGQSCLPVGQSDIPRSSTVKIYCPKCEDIYYPRSKYQGNIDGAYFGTTFPHLFLMAYGNMKPQKPAQNYVPKIFGFKVHNKQ

binding [2]: no binding | binding [3]: binds
B2: CKB4 fused to the C-terminal fragment of YFP (CKB4-cYFP) (protein, UniProt O80507 1-283)
chain: B1 chain

Source: publication PMC2973838
